Measurements from PubChem BioAssay AID504467 (National Center for Advancing Translational Sciences (NCATS), 2011).
The campaign covered roughly 330,000 compounds. About 7,700 (2.3%) were called active. Inconclusive means that the source gave no clear call. Such entries were picked first, then a sample of the others. Calls come from the whole dose curve; as a rule, active = well fitted inhibition curve with a large enough effect; inconclusive = small, poorly fitted or top-dose-only effect, or effect the other way; inactive = flat fitted curve, though single readings scatter. Potencies of inconclusive entries are doubtful fits and often do not repeat.

Experiment: qHTS screen for small molecules that inhibit ELG1-dependent DNA repair in human embryonic kidney (HEK293T) cells expressing luciferase-tagged ELG1; note: nearly all actives have a fitted effect of over 55% in size
Conditions: HEK293T ELG1-luciferase reporter, luminescence, 16 h, DNA damage induced by 5-fluorouridine; series mostly up to 46.1 µM
How it was run: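 Luminescence from the luciferase reporter, measured 30 min after ONE-Glo reagent at room temperature, was the read-out. Beforehand, 2,000 cells per well were exposed for 16 hr at 37 °C to 5-fluorouridine together with compound or vehicle.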
Potency is the fitted concentration of half-maximal effect.

With Cc1ccc(N(C)S(=O)(=O)c2cccc(C(=O)NCC(c3cccs3)N3CCOCC3)c2)cc1 (centres undefined) as the compound, how does the Potency read?
The Potency was “inactive”.

For COCCN(C(=O)CNC(=O)c1cccs1)C(C(=O)NC1CCCC1)c1cccs1 (centres undefined), which Potency is on record?
Its Potency is “inactive”.

With O=C(C[C@H]1C/C=C\C[C@@H](Cc2ccc(F)cc2)C(=O)O[C@H](c2ccccc2)CNC1=O)N[C@@H](CO)Cc1ccccc1 as the compound, how does the Potency read?
Its Potency is inconclusive: 6.51 µM [inhibitor, single point].

Which Potency does the source give for NS(=O)(=O)c1ccc(CCNC(=O)COC(=O)c2ccc([N+](=O)[O-])o2)cc1 here?
Its Potency is “inactive”.

For Cc1ccc2nc(SCC(=O)c3c(C)[nH]c4ccccc34)[nH]c2c1, which Potency is on record?
The Potency was inconclusive: 23.1 µM [inhibitor, single point].

Which Potency does the source give for COc1ccc(-n2c(CCc3ccccc3)nnc2SCC(=O)NCc2ccccc2)cc1 here?
Its Potency is inconclusive: 18.4 µM [inhibitor, single point].

For COc1cccc(C(=O)N2CCN=C2SCc2cccnc2)c1OC, which Potency is on record?
The Potency was inconclusive: 23.1 µM [inhibitor, partial curve, poor fit].

With CCOC(=O)COc1ccc2c3c(c(=O)oc2c1)CCCC3 as the compound, how does the Potency read?
Its Potency is “inactive”.

For O=C(Cc1ccc(F)cc1)N/N=C/c1ccc2c(c1)OCO2, which Potency is on record?
Its Potency is inconclusive: 13 µM [activator, partial curve].

For Cc1ccnc(Sc2ccc([N+](=O)[O-])cc2[N+](=O)[O-])n1, which Potency is on record?
The Potency was inconclusive: 29.1 µM [inhibitor, partial curve, poor fit].

With COc1cccc(CN2CCN(CC(=O)Nc3ccccc3Cl)CC2)c1 as the compound, how does the Potency read?
The Potency was active: 13 µM.

Which Potency does the source give for Cc1[nH]n(-c2ccccc2)c(=O)c1N=Nc1c(O)cc(S(=O)(=O)N(C)C)c2ccccc12 here?
The Potency was active: 4.11 µM.

Which Potency does the source give for Cc1ccc(NN2C(=O)C=C(c3ccc(Cl)cc3)C2=O)cc1 here?
The Potency was inconclusive: 23.1 µM [activator, single point].

For CCN(C(=O)COC(=O)c1ccccc1O)c1nc2ccccc2s1, which Potency is on record?
The Potency was inconclusive: 20.6 µM [activator, single point].

With O=C(NCCCCO)c1ccc2c3c(cccc13)CC2 as the compound, how does the Potency read?
The Potency was “inactive”.

With Cc1cccc(N=Nc2c(N)n[nH]c2N)c1 as the compound, how does the Potency read?
Its Potency is inconclusive: 9.2 µM [activator, partial curve, poor fit].

For CC[n+]1c(C)n(-c2ccccc2)c2ccc(NC(C)=O)cc21, which Potency is on record?
The Potency was inconclusive: 2.31 µM [inhibitor, full curve].

With C/C(=N\NC(=O)CCc1ccccc1)c1ccc(Br)cc1 as the compound, how does the Potency read?
Its Potency is “inactive”.

Which Potency does the source give for COc1ccc(S(=O)(=O)CCC(=O)NCCc2ccc(C)cc2)cc1 here?
The Potency was “inactive”.

For N=c1ccn(Cc2cccc(Cl)c2)cc1, which Potency is on record?
The Potency was inconclusive: 10 µM [inhibitor, partial curve].

For O=C(Nc1ccncc1)c1c(F)cccc1F, which Potency is on record?
The Potency was active: 6.51 µM.

With O=C1OCC(CO)(CO)N=C1NNc1ccccc1Cl as the compound, how does the Potency read?
Its Potency is “inactive”.

With CSc1nc2ccc(NC(=O)c3ccc(F)c(F)c3)cc2s1 as the compound, how does the Potency read?
The Potency was inconclusive: 3.66 µM [activator, single point].

Which Potency does the source give for Cc1nc2ccccc2c2oc(C(=O)Nc3ccc(C(C)C)cc3)cc12 here?
The Potency was active: 23.1 µM.

With COc1ccc(Nc2nc(N)nc(CSC(=S)N3CCOCC3)n2)cc1 as the compound, how does the Potency read?
The Potency was inconclusive: 11.6 µM [activator, partial curve].

With NNC(=O)C1COc2cc3ccccc3cc2O1 (centres undefined) as the compound, how does the Potency read?
Its Potency is “inactive”.

Which Potency does the source give for Cc1ccc(C#CC(C)(O)C(C)(C)C)cn1 (centres undefined) here?
Its Potency is “inactive”.

Which Potency does the source give for CCCc1nnc(SCC(=O)Nc2ccc3c(c2)OCCO3)n1CCOC here?
Its Potency is inconclusive: 18.3 µM [activator, partial curve, poor fit].

With Cc1cc(C)cc(NC(=O)c2oc3ccccc3c2COc2ccccc2)c1 as the compound, how does the Potency read?
The Potency was “inactive”.

For O=C(C1CC(=O)N(c2ccc(F)cc2)C1)N1CCCCC1 (centres undefined), which Potency is on record?
The Potency was inconclusive: 18.3 µM [activator, partial curve, poor fit].

Which Potency does the source give for C[C@]12c3[nH]c4ccc(Cl)cc4c3CCN1C(=O)[C@@H](CC(=O)NCC13CC4CC(CC(C4)C1)C3)C[C@@H]2C(=O)N1CCCCC1 here?
The Potency was inconclusive: 13 µM [inhibitor, partial curve].

For CC(=O)c1c(C)nn(CC(O)COc2ccc3ccccc3c2)c1C (centres undefined), which Potency is on record?
Its Potency is inconclusive: 29.1 µM [inhibitor, single point].

For COc1ccc2nc3ccccc3nc2c1NC(=O)c1ccccc1Cl, which Potency is on record?
The Potency was inconclusive: 29.1 µM [inhibitor, partial curve, poor fit].

Which Potency does the source give for Cc1ccc(SCC(=O)c2c(C)nc3cc(C)ccn23)cc1 here?
Its Potency is inconclusive: 4.61 µM [inhibitor, partial curve, poor fit].

With C=C1CCC2[C@](C)(CO)[C@H](O)CC[C@@]2(C)[C@@H]1C/C=C1\C(=O)OC[C@H]1O (some centres undefined) as the compound, how does the Potency read?
Its Potency is inconclusive: 18.3 µM [inhibitor, single point].

With O=C(N/N=C/c1cccc([N+](=O)[O-])c1)c1cccc(Br)c1 as the compound, how does the Potency read?
Its Potency is inconclusive: 9.2 µM [activator, partial curve].

Which Potency does the source give for CCc1noc(C)c1C(=O)N1CCN(S(=O)(=O)c2ccc(C)cc2C)CC1 here?
Its Potency is “inactive”.

With COc1cccc(NC(=O)CNS(=O)(=O)c2ccc(Cl)cc2)c1 as the compound, how does the Potency read?
The Potency was “inactive”.

For COc1cc2c(cc1OC)CN(S(=O)(=O)/C=C/c1ccccc1)CC2, which Potency is on record?
Its Potency is inconclusive: 18.3 µM [inhibitor, single point].

With Cc1cc(C)nc(Oc2ccc(Br)cc2Br)n1 as the compound, how does the Potency read?
Its Potency is inconclusive: 16.4 µM [activator, partial curve].

For CC(O)CN=c1cc(-c2ccccc2)oc2ccc(Cl)cc12 (centres undefined), which Potency is on record?
Its Potency is inconclusive: 16.4 µM [activator, single point].

For CCOc1c(CNCCCSc2nc(C)cc(C)n2)cccc1OC, which Potency is on record?
The Potency was “inactive”.

For COc1ccccc1-c1cc(C(=O)Nc2cccnc2)no1, which Potency is on record?
The Potency was inconclusive: 9.2 µM [activator, partial curve].

For CCOC(=O)c1c(CN(C)C)n(-c2ccc(C)cc2)c2cc(Br)c(O)cc12, which Potency is on record?
The Potency was “inactive”.

Which Potency does the source give for CC(=O)NCCc1ccc(C(=O)Cn2cnc3ccccc3c2=O)cc1 here?
The Potency was inconclusive: 23.1 µM [activator, partial curve].

Which Potency does the source give for CN1/C(=C/C(=O)C2CC2)C(C)(C)c2ccccc21 here?
The Potency was “inactive”.

Which Potency does the source give for Nn1c(Cc2ccc(Br)cc2)n[nH]c1=S here?
The Potency was “inactive”.

For COc1ccc(CCNc2ncnc3sc(C)cc23)cc1OC, which Potency is on record?
The Potency was inconclusive: 6.51 µM [inhibitor, partial curve, poor fit].

Which Potency does the source give for N#Cc1cc(-c2ccccc2)nnc1Sc1ccc(Cl)cc1 here?
Its Potency is inconclusive: 25.9 µM [activator, partial curve, poor fit].

Which Potency does the source give for C=CCC(NCc1ccccc1)c1ccc(OC)cc1 (centres undefined) here?
The Potency was “inactive”.

For O=C1CCC(C(=O)Nc2ccc([N+](=O)[O-])cc2)N1 (centres undefined), which Potency is on record?
Its Potency is “inactive”.

Which Potency does the source give for CN(C)c1cccc2cccc(N(C)C)c12 here?
Its Potency is “inactive”.

With CCn1cnc2c1c(=O)n(CC(=O)NCC(F)(F)F)c(=O)n2Cc1ccccc1 as the compound, how does the Potency read?
Its Potency is “inactive”.

For Cc1cc(NC(=O)C2CC=CCC2C(=O)O)ccc1NC(=O)c1ccccc1 (centres undefined), which Potency is on record?
The Potency was inconclusive: 18.3 µM [activator, single point].

Which Potency does the source give for COc1ccccc1C1=CC(=O)C[C@H](c2ccc(F)cc2)C1 here?
Its Potency is inconclusive: 0.651 µM [activator, single point].

Which Potency does the source give for Cc1nnc(SCC(=O)Nc2nnc(-c3ccccc3)o2)s1 here?
Its Potency is “inactive”.

With CC(=O)Nc1ccc(S(=O)(=O)c2ccc(N)cc2)cc1 as the compound, how does the Potency read?
The Potency was inconclusive: 4.61 µM [activator, partial curve, poor fit].

Which Potency does the source give for NC(=O)C1CCN(C(=O)/C=C/c2cccc(Br)c2)CC1 here?
Its Potency is inconclusive: 0.517 µM [activator, full curve, poor fit].

For Cc1ccc(C(=O)N(CN2CCCC2=O)c2ccccc2)cc1C, which Potency is on record?
Its Potency is “inactive”.

Which Potency does the source give for COCCNc1nc(N)c([N+](=O)[O-])c(N2CCCCCC2)n1 here?
The Potency was “inactive”.

For OCCSc1nncn1/N=C/c1c[nH]c2ccccc12, which Potency is on record?
The Potency was inconclusive: 16.4 µM [activator, single point].

With CC1Cc2ccccc2N1C(=O)COC(=O)c1ccc(N(C)C)cc1 (centres undefined) as the compound, how does the Potency read?
Its Potency is inconclusive: 16.4 µM [inhibitor, single point].

For O=C(NC(=S)Nc1ccc(-c2ccc(CO)o2)cc1)c1cccs1, which Potency is on record?
Its Potency is inconclusive: 9.2 µM [activator, partial curve].

For COc1ccc2c(C)c(Cc3ccccc3)c(=O)oc2c1OC, which Potency is on record?
The Potency was inconclusive: 29.1 µM [inhibitor, single point].

For O=C(Nc1ccccc1Cl)c1ccc(-c2ccccn2)s1, which Potency is on record?
The Potency was inconclusive: 5.17 µM [activator, full curve].

For Cc1c(Cl)cccc1NC(=O)CNC(=O)c1ccc2c(c1)OCCO2, which Potency is on record?
Its Potency is inconclusive: 11.6 µM [activator, partial curve].

With CN(C1=C(NC(=O)c2ccccc2)C(=O)c2ccccc2C1=O)C1CCS(=O)(=O)C1 (centres undefined) as the compound, how does the Potency read?
The Potency was active: 9.2 µM.

Which Potency does the source give for CC(=O)Nc1cc(-c2nn3c(C)nnc3s2)ccc1C here?
Its Potency is inconclusive: 20.6 µM [activator, partial curve, poor fit].

With CCCCOc1ccc(C(=O)NNC(=O)C2C3CCC(C3)C2C(=O)O)cc1 (centres undefined) as the compound, how does the Potency read?
The Potency was inconclusive: 16.4 µM [activator, partial curve].

With CC1CCCCN1C(=O)c1ccc(OC2CCN(S(=O)(=O)N(C)C)CC2)cc1 (centres undefined) as the compound, how does the Potency read?
The Potency was active: 9.2 µM.

For COc1ccc(CNC(=O)c2cc(-c3ccccc3O)n[nH]2)cc1, which Potency is on record?
The Potency was inconclusive: 23.1 µM [activator, partial curve, poor fit].

For CSc1ncc(C(=O)Nc2cc(C)ccc2C)c(C)n1, which Potency is on record?
Its Potency is inconclusive: 0.164 µM [inhibitor, full curve].

Which Potency does the source give for CCC(=O)Nc1ccc(N2CCN(C(=O)c3ccco3)CC2)c(Cl)c1 here?
Its Potency is inconclusive: 18.3 µM [inhibitor, partial curve, poor fit].

With CC1CCCN(c2ccc(C(=O)Nc3cccnc3)cc2[N+](=O)[O-])C1 (centres undefined) as the compound, how does the Potency read?
The Potency was active: 14.6 µM.
